Taken from: PubChem BioAssay AID1224830 (NIAID, 2016)
Aim: 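Host factors that control LPS-induced TNF expression in human macrophages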 (primary screen). Cells: human THP-1 monocytic leukaemia cells, TNF dual-luciferase reporter clone, PMA-differentiated to macrophage-like cells. Reagents: siRNA pool against human genes, 50 nM. Time to read-out: LPS for 4 h, given about 3 days after siRNA transfection. Challenge: bacterial LPS (TLR4 ligand), 10 ng/ml. Detection: 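TNF firefly reporter luminescence divided by renilla, normalised to the plate median, then turned into a robust z-score for each replicate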. Reading the numbers: TNF reporter robust z-score: higher = stronger TNF reporter response to LPS. Hit rule: 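a well is active when its z-score exceeds 2.8 or falls below -1.5; control wells carry no call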.
In all, the deposit lists about 18,000 reagents; this is a random part of them. Over the whole deposit, about 2,900 (16%) are marked active. 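Calls are made per well; low scores hint the gene aids the LPS response, high scores that it dampens it.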 Repeated entries: four replicate wells of each siRNA pool.

BMPR2 (GeneID 659)
- TNF reporter robust z-score: 1.59
- outcome: inactive

BMPR2 (GeneID 659)
- TNF reporter robust z-score: 1.31
- outcome: inactive

BMPR2 (GeneID 659)
- TNF reporter robust z-score: -0.79
- outcome: inactive

BMPR2 (GeneID 659)
- TNF reporter robust z-score: -0.33
- outcome: inactive

ASL (GeneID 435)
- TNF reporter robust z-score: -1.09
- outcome: inactive

ASL (GeneID 435)
- TNF reporter robust z-score: -0.83
- outcome: inactive

ASL (GeneID 435)
- TNF reporter robust z-score: -0.76
- outcome: inactive

ASL (GeneID 435)
- TNF reporter robust z-score: -0.34
- outcome: inactive

FMC1 (GeneID 154791)
- TNF reporter robust z-score: -1.33
- outcome: inactive

FMC1 (GeneID 154791)
- TNF reporter robust z-score: -1.48
- outcome: inactive

FMC1 (GeneID 154791)
- TNF reporter robust z-score: -1.55
- outcome: active

FMC1 (GeneID 154791)
- TNF reporter robust z-score: -1.42
- outcome: inactive

GALC (GeneID 2581)
- TNF reporter robust z-score: 0.14
- outcome: inactive

GALC (GeneID 2581)
- TNF reporter robust z-score: 0.47
- outcome: inactive

GALC (GeneID 2581)
- TNF reporter robust z-score: 0.84
- outcome: inactive

GALC (GeneID 2581)
- TNF reporter robust z-score: 1.27
- outcome: inactive

Next part; the last 4 above are carried over.
GALC (GeneID 2581)
- TNF reporter robust z-score: 0.14
- outcome: inactive

GALC (GeneID 2581)
- TNF reporter robust z-score: 0.47
- outcome: inactive

GALC (GeneID 2581)
- TNF reporter robust z-score: 0.84
- outcome: inactive

GALC (GeneID 2581)
- TNF reporter robust z-score: 1.27
- outcome: inactive

EEF1D (GeneID 1936)
- TNF reporter robust z-score: 0.1
- outcome: inactive

EEF1D (GeneID 1936)
- TNF reporter robust z-score: 0.07
- outcome: inactive

EEF1D (GeneID 1936)
- TNF reporter robust z-score: -0.5
- outcome: inactive

EEF1D (GeneID 1936)
- TNF reporter robust z-score: 1.24
- outcome: inactive

ZNF554 (GeneID 115196)
- TNF reporter robust z-score: 1.4
- outcome: inactive

ZNF554 (GeneID 115196)
- TNF reporter robust z-score: 2.28
- outcome: inactive

ZNF554 (GeneID 115196)
- TNF reporter robust z-score: 0.58
- outcome: inactive

ZNF554 (GeneID 115196)
- TNF reporter robust z-score: 0.57
- outcome: inactive

ARFGEF3 (GeneID 57221)
- TNF reporter robust z-score: 1.01
- outcome: inactive

ARFGEF3 (GeneID 57221)
- TNF reporter robust z-score: 1.81
- outcome: inactive

ARFGEF3 (GeneID 57221)
- TNF reporter robust z-score: 3.27
- outcome: active

ARFGEF3 (GeneID 57221)
- TNF reporter robust z-score: 0.54
- outcome: inactive

TRMT44 (GeneID 152992)
- TNF reporter robust z-score: 0.1
- outcome: inactive

TRMT44 (GeneID 152992)
- TNF reporter robust z-score: 1.01
- outcome: inactive

TRMT44 (GeneID 152992)
- TNF reporter robust z-score: 0.37
- outcome: inactive

TRMT44 (GeneID 152992)
- TNF reporter robust z-score: -0.38
- outcome: inactive

MRPL19 (GeneID 9801)
- TNF reporter robust z-score: -0.19
- outcome: inactive

MRPL19 (GeneID 9801)
- TNF reporter robust z-score: -0.39
- outcome: inactive

MRPL19 (GeneID 9801)
- TNF reporter robust z-score: -0.42
- outcome: inactive

MRPL19 (GeneID 9801)
- TNF reporter robust z-score: -0.41
- outcome: inactive

HP (GeneID 3240)
- TNF reporter robust z-score: 0.01
- outcome: inactive

HP (GeneID 3240)
- TNF reporter robust z-score: 0.93
- outcome: inactive

HP (GeneID 3240)
- TNF reporter robust z-score: -1.22
- outcome: inactive

HP (GeneID 3240)
- TNF reporter robust z-score: -1.38
- outcome: inactive

RXFP4 (GeneID 339403)
- TNF reporter robust z-score: -0.33
- outcome: inactive

RXFP4 (GeneID 339403)
- TNF reporter robust z-score: 1.26
- outcome: inactive

RXFP4 (GeneID 339403)
- TNF reporter robust z-score: 0.29
- outcome: inactive

RXFP4 (GeneID 339403)
- TNF reporter robust z-score: 1.95
- outcome: inactive

PRMT8 (GeneID 56341)
- TNF reporter robust z-score: -0.93
- outcome: inactive

PRMT8 (GeneID 56341)
- TNF reporter robust z-score: -0.99
- outcome: inactive

PRMT8 (GeneID 56341)
- TNF reporter robust z-score: -0.43
- outcome: inactive

PRMT8 (GeneID 56341)
- TNF reporter robust z-score: -0.24
- outcome: inactive
